Assay [1] addresses T1, His-tagged human Deaf1 (pcDNA3-His-human Deaf1) (human) (UniProt O75398).
T1 sequence: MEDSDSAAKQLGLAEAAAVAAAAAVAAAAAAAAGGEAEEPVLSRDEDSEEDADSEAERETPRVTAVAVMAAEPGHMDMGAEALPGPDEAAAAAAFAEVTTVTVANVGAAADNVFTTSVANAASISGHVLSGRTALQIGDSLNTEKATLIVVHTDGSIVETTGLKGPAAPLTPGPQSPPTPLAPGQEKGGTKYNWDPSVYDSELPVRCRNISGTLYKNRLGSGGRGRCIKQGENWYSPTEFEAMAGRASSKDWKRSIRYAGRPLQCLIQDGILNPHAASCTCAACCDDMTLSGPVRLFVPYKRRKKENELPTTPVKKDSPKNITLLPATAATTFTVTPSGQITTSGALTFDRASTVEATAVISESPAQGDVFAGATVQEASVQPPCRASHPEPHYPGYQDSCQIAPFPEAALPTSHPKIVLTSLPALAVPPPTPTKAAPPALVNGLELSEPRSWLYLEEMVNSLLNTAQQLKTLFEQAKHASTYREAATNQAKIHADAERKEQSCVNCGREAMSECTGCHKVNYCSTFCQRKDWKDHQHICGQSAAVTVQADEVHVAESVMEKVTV
The assay is described as follows: pull-down; lysate of co-transfected SKN-SH cells (500 μg/500 μL, FLAG buffer) rotated 1 hr at 4 °C with cobalt beads that bind the His tag of Deaf1; Western blot for FLAG.

By UniProt entry, the sequences of proteins in these tests, tags left out.
UniProt P51608: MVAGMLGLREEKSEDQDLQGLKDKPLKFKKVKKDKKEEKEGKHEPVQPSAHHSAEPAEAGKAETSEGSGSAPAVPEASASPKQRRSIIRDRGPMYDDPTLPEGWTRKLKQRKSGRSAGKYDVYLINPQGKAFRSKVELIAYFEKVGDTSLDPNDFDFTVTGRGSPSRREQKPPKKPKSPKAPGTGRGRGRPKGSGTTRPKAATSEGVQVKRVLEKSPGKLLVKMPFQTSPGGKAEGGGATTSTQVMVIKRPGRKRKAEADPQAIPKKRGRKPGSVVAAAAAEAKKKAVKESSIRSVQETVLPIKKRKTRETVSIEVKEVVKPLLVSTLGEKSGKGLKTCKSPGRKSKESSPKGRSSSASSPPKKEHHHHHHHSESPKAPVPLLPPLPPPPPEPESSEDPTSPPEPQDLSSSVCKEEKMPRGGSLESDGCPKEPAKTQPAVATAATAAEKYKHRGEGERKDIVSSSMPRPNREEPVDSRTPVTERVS

In assay [2] the target is T2, endogenous Deaf1 of SKN-SH cells (human (endogenous in SKN-SH)) (UniProt O75398).
T2 sequence: T1 sequence
The assay is described as follows: co-IP; endogenous proteins; lysates of cells and brain tissue (1500 μg/1 mL) with anti-Deaf1 rabbit antibody, pre-immune IgG or anti-MeCP2 antibody 16 h at 4 °C, protein A-Sepharose; Western blot for MeCP2; Deaf1 −/− MEFs and Deaf1 KO hippocampus as controls.

Results are given in words; binding and its absence hold for the method and conditions named. In cells and extracts the contact can be indirect. Some binding calls cover weakened binding; strength is not graded here. For some assays here: Tags and fused reporters may be left off the sequences shown.

Turning to “FLAG-tagged human MeCP2 (pFLAG-human MeCP2) (from UniProt P51608 1-486)”, the binding entry in assay [1] is “binds”.

“endogenous MeCP2 of SKN-SH cells (from UniProt P51608 1-486)”: the binding result in assay [2] was “binds”.
